{"sequences": {"note": "The chains behind the UniProt entries cited, without tags or fusion partners. Where a name states a change or a piece, a line headed by the entry shows the natural chain unless it says otherwise.", "UniProt Q9UNA4": "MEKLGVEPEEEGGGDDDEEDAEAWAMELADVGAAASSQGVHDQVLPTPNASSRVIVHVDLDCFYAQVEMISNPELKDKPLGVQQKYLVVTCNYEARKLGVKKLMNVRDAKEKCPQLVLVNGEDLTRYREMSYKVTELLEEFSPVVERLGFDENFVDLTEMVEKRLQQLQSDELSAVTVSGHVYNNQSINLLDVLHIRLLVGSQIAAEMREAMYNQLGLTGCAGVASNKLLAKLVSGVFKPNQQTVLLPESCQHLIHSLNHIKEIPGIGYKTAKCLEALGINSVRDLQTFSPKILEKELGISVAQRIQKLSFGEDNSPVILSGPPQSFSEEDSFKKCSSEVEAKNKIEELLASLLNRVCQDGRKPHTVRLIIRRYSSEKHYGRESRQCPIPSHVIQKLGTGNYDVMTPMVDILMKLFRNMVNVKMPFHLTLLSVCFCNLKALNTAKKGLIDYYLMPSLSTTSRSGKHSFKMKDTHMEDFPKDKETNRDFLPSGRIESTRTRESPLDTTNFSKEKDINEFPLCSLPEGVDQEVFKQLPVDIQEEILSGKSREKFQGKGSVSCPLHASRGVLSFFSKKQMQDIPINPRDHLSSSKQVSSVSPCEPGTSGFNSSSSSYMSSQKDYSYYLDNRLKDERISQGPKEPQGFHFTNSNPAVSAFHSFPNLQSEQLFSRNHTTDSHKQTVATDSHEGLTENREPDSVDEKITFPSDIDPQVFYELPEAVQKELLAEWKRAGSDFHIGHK"}, "source": "PubChem BioAssay AID588590", "about": "(National Center for Advancing Translational Sciences (NCATS), 2011)", "note": "Values joined by “and” are separate entries in the source; they are usually repeats but may differ in a detail not shown here. Identical values can stand only once. Among all 390,000 compounds or so, about 4,000 (1%) were called active. Inconclusive means that the source gave no clear call. Such entries were picked first, then a sample of the others. The call rests on the fitted dose curve; in most records, active means well fitted inhibition curve with a large enough effect; inconclusive means small, poorly fitted or top-dose-only effect, or another doubt; inactive means no such curve, though single readings can be large or run the other way. Potencies of inconclusive entries are doubtful fits and often do not repeat. Potency means the concentration at half of the fitted maximal effect.", "data": [{"molecular_target": "DNA polymerase iota (Homo sapiens) (UniProt Q9UNA4)", "assay": "qHTS for Inhibitors of Polymerase Iota", "details": "Pol iota fluorescent replication assay, 10 min; series mostly up to 115 µM", "method_in_brief": "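Fluorescent replication assay read twice, at 0 min and 10 min after adding 50 nM (final) substrate. Enzyme (10 nM) and compounds were first incubated 15 min at room temperature; enzyme-free buffer wells were negative controls.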", "values": [{"smiles": "CCOC(=O)c1c(NC(=O)CC2SC(N)=NC2=O)sc(C)c1C", "note": "(configuration not stated)", "Potency": "inconclusive: 6.31 µM [inhibitor, full curve, poor fit]"}, {"smiles": "Cc1ccc(C)c(CNC(=O)c2sc3ncnc(N(C)C4CCCCC4)c3c2C)c1", "Potency": "inactive"}, {"smiles": "Cc1cc(C)c(NC(=O)OCCN2CCOCC2)c(C)c1", "Potency": "inconclusive: 5.62 µM [inhibitor, partial curve, poor fit]"}, {"smiles": "Cc1cccc(NC(=O)c2cccc3c2-c2ccccc2C3=O)n1", "Potency": "inconclusive: 44.7 µM [inhibitor, partial curve]"}, {"smiles": "O=C(Cn1c(=O)oc2cc(S(=O)(=O)N3CCCCCC3)ccc21)NC1CCCCCCC1", "Potency": "inconclusive: 39.8 µM [inhibitor, single point]"}, {"smiles": "Cc1nn(C)c(Cl)c1S(=O)(=O)N(Cc1ccco1)c1ncnc2nc[nH]c12", "Potency": "inconclusive: 39.8 µM [inhibitor, single point]"}, {"smiles": "CN(CCOc1ccc(Br)cc1)CC(O)c1ccccc1", "note": "(configuration not stated)", "Potency": "inconclusive: 31.6 µM [inhibitor, single point]"}, {"smiles": "Cc1ccc(C(=O)/C=C/c2ccc3c(c2)OCO3)o1", "Potency": "inconclusive: 39.8 µM [inhibitor, full curve]"}, {"smiles": "CCCCCn1c(=O)c2c(nc3n2CCN3c2ccc(Br)cc2)n(C)c1=O", "Potency": "inactive"}, {"smiles": "CC(NC(=O)CSc1nnc(CC(=O)Nc2ccc(Cl)c(Cl)c2)n1C)c1ccccc1", "note": "(configuration not stated)", "Potency": "inconclusive: 14.1 µM [inhibitor, partial curve]"}, {"smiles": "CS(=O)(=O)N1CCC(C(=O)Nc2ccccc2Cl)CC1", "Potency": "inconclusive: 89.1 µM [inhibitor, single point]"}, {"smiles": "O=C1COc2ccc(-c3csc(NCCc4ccccc4)n3)cc2N1", "Potency": "inconclusive: 12.6 µM [inhibitor, full curve]"}, {"smiles": "Cc1cnc(NC(=O)CSc2ccccc2)s1", "Potency": "inconclusive: 39.8 µM [inhibitor, single point]"}, {"smiles": "O=C(CCCC(=O)N1CCCc2ccccc21)N1CCCc2ccccc21", "Potency": "inconclusive: 39.8 µM [inhibitor, single point]"}, {"smiles": "CC(=O)/C=N/Nc1ccccc1", "Potency": "inconclusive: 89.1 µM [inhibitor, partial curve, poor fit]"}, {"smiles": "CCOc1cc(C(=O)NC(C)COC)cc(OCC)c1OCC", "note": "(configuration not stated)", "Potency": "inconclusive: 89.1 µM [inhibitor, partial curve, poor fit]"}, {"smiles": "N#CC1=C2SCN(Cc3ccccc3)CN2C(=O)CC1c1ccccc1F", "note": "(configuration not stated)", "Potency": "inactive"}, {"smiles": "CCCCCC(=O)N1CC2(CC(c3cccc(NC(=O)CC)c3)=NO2)C[C@H]1C(N)=O", "note": "(some centres not stated)", "Potency": "inconclusive: 39.8 µM [inhibitor, partial curve, poor fit]"}, {"smiles": "Cn1c(SCC(=O)Nc2nncs2)nnc1C1CC1", "Potency": "inconclusive: 20 µM [inhibitor, full curve, poor fit]"}, {"smiles": "Clc1ccc(-c2nnc(-c3ccco3)nc2N2CCCCC2)cc1", "Potency": "inactive"}, {"smiles": "COC(=O)Nc1ccc2c(c1)N(C(=O)CCN1CCOCC1)c1ccccc1S2", "Potency": "inconclusive: 28.2 µM [inhibitor, full curve, poor fit]"}, {"smiles": "OC(CNCC1COc2ccccc2O1)COCc1cccs1", "note": "(configuration not stated)", "Potency": "inconclusive: 20 µM [inhibitor, partial curve]"}, {"smiles": "CCOC(=O)c1ccc(N2C(=O)C(O)=C(C(C)=O)C2c2ccccn2)cc1", "note": "(configuration not stated)", "Potency": "inconclusive: 15.8 µM [inhibitor, partial curve, poor fit]"}, {"smiles": "COc1ccc(C(=O)Nc2nc3c(s2)Cc2cc(OC)ccc2-3)cc1", "Potency": "inconclusive: 20 µM [inhibitor, single point] and inconclusive: 50.1 µM [inhibitor, partial curve, poor fit]"}, {"smiles": "O=C(O)c1ccc(NS(=O)(=O)c2ccc3c(c2)C(=O)c2cc(S(=O)(=O)Nc4ccc(C(=O)O)cc4)ccc2-3)cc1", "Potency": "inconclusive: 39.8 µM [inhibitor, single point]"}, {"smiles": "COc1ccc(CCNC(=O)CSc2nc3sc(C(=O)O)c(C)c3c(=O)[nH]2)cc1OC", "Potency": "inactive"}, {"smiles": "Cc1ccc(NC(=O)c2ccc(=O)[nH]n2)cc1S(=O)(=O)Nc1ccc(SC(F)F)cc1", "Potency": "inconclusive: 7.08 µM [inhibitor, full curve, poor fit]"}, {"smiles": "NC(=O)c1cc(-c2csc(NCCc3ccccc3)n2)ccc1O", "Potency": "inconclusive: 44.7 µM [inhibitor, full curve, poor fit]"}, {"smiles": "COc1cc2c(NC3CCN(C)CC3)nc(N3CCCN(C)CC3)nc2cc1OCCOCCN(C)C", "Potency": "inconclusive: 50.1 µM [inhibitor, partial curve]"}, {"smiles": "CN1CCC/C1=C1/C(=O)N(c2ccccc2)N=C1NC(=O)Nc1cccc(Cl)c1", "Potency": "inconclusive: 35.5 µM [inhibitor, partial curve, poor fit]"}, {"smiles": "Cc1ccc(S(=O)(=O)CCC(=O)N2CCN(c3ccc([N+](=O)[O-])cc3)CC2)cc1", "Potency": "inconclusive: 39.8 µM [inhibitor, partial curve, poor fit]"}, {"smiles": "CCOC(=O)C1=C(C)N=C2SC(C)C(=O)N2C1c1cccc(F)c1", "note": "(configuration not stated)", "Potency": "inconclusive: 14.1 µM [inhibitor, partial curve]"}, {"smiles": "O=C1CSC(=S)N1Cc1cccnc1", "Potency": "inconclusive: 15.8 µM [inhibitor, full curve, poor fit]"}, {"smiles": "CCCCn1c(SCC(=O)N2CCN(c3ccccc3)CC2)nc2ccsc2c1=O", "Potency": "inconclusive: 25.1 µM [inhibitor, partial curve, poor fit]"}, {"smiles": "COc1cc2ccccc2cc1C(=O)Nc1ccc2oc(-c3cccc(C)c3)nc2c1", "Potency": "inactive"}, {"smiles": "C/C=C/C1=CC(=O)C[C@H](c2ccc3c(c2)OCO3)C1", "Potency": "inconclusive: 63.1 µM [inhibitor, partial curve, poor fit]"}, {"smiles": "COc1ccc(CCNc2nc3cc(OC)c(OC)cc3c3nc(-c4cccnc4)nn23)cc1OC", "Potency": "inactive"}, {"smiles": "CCOC(=O)NC(=O)/C(C#N)=N\\Nc1cccc(Cl)c1", "Potency": "inactive"}, {"smiles": "Cc1ccc(-c2cc(C(F)F)nc(N3CCOCC3)n2)cc1", "Potency": "inconclusive: 89.1 µM [inhibitor, single point]"}, {"smiles": "COCCCN1C(=O)c2ccc(C(=O)OCC(=O)NCc3cccc(OC)c3)cc2C1=O", "Potency": "inconclusive: 100 µM [inhibitor, partial curve, poor fit]"}, {"smiles": "CCOC(=O)C1CCCN(C2=NC(=O)/C(=C/c3ccc(OC)c(OC)c3)S2)C1", "note": "(configuration not stated)", "Potency": "inconclusive: 28.2 µM [inhibitor, single point]"}, {"smiles": "CCc1ccc(NC(=O)c2cc(S(=O)(=O)N3CCCC3)c[nH]2)cc1", "Potency": "inconclusive: 1 µM [inhibitor, partial curve, poor fit]"}, {"smiles": "Cc1sc2nc(SCC(=O)NCc3ccco3)n(C)c(=O)c2c1C", "Potency": "inconclusive: 89.1 µM [inhibitor, partial curve, poor fit]"}, {"smiles": "O=c1[nH]c(/C=C\\c2ccc(O)c(Cl)c2)nc(O)c1[N+](=O)[O-]", "Potency": "inconclusive: 1.78 µM [inhibitor, partial curve, poor fit]"}, {"smiles": "CCCNC(=O)c1cc2nc(-c3ccccc3)cc(C(F)(F)F)n2n1", "Potency": "inconclusive: 89.1 µM [inhibitor, single point]"}, {"smiles": "O=[N+]([O-])c1ccccc1S(=O)(=O)Nc1ccc(-c2ccc3nncn3n2)cc1", "Potency": "inconclusive: 7.94 µM [inhibitor, partial curve]"}, {"smiles": "Cc1nc(-c2ccc(F)cc2)sc1CCNC(=O)c1ccc(C(C)(C)C)cc1", "Potency": "inconclusive: 70.8 µM [inhibitor, partial curve, poor fit]"}, {"smiles": "Clc1ccc2nc[nH]c2c1", "Potency": "inactive"}, {"smiles": "CCOC(=O)C1CCCN(C(=O)C2CCC(CNS(=O)(=O)c3ccc(NC(C)=O)cc3)CC2)C1", "note": "(configuration not stated)", "Potency": "inconclusive: 44.7 µM [inhibitor, partial curve, poor fit]"}, {"smiles": "O=C(c1ccc(Br)o1)N1CCC(Cc2ccccc2)CC1", "Potency": "inconclusive: 89.1 µM [inhibitor, single point]"}, {"smiles": "Cc1[nH]n(-c2ccc([N+](=O)[O-])cc2)c(=O)c1C=NCCN1CCN(C(=O)c2ccccc2F)CC1", "Potency": "inactive"}, {"smiles": "COc1ccc(C2C=C(c3ccccc3)Nc3nc(NC(=O)/C=C/c4ccc(Cl)cc4)nn32)cc1", "note": "(configuration not stated)", "Potency": "inactive"}, {"smiles": "COc1cccc(C2C3=C(N=c4s/c(=C\\c5cccc(O)c5)c(=O)n42)c2ccccc2CC3)c1OC", "note": "(configuration not stated)", "Potency": "inactive"}, {"smiles": "CCCc1cc(=O)oc2cc(OCc3cc(OC)c(OC)c(OC)c3)c(Cl)cc12", "Potency": "inconclusive: 1 µM [inhibitor, full curve, poor fit]"}, {"smiles": "CCCCNc1c(-c2ccc(SC(C)CC)c(OC)c2)nc2ccc(C)cn12", "note": "(configuration not stated)", "Potency": "inconclusive: 20 µM [inhibitor, single point]"}, {"smiles": "Cc1cc(NC(=O)CSCC(=O)OCC(=O)c2cccc(Br)c2)no1", "Potency": "inconclusive: 31.6 µM [inhibitor, full curve]"}, {"smiles": "COc1ccc(C(C)(C)C)cc1NC(=O)COC(=O)c1ccc([N+](=O)[O-])o1", "Potency": "inconclusive: 3.16 µM [inhibitor, partial curve, poor fit]"}, {"smiles": "Cc1cccc(Oc2sc(C(=O)c3ccccc3)c(N)c2C#N)c1C", "Potency": "inconclusive: 89.1 µM [inhibitor, partial curve, poor fit]"}, {"smiles": "Clc1ccc(OCCCCSc2ncccn2)cc1", "Potency": "inconclusive: 44.7 µM [inhibitor, single point]"}, {"smiles": "Cc1ccc(C(=O)COC(=O)CCC(=O)NC2CCCCC2)cc1C", "Potency": "inconclusive: 12.6 µM [inhibitor, single point]"}, {"smiles": "COc1cccc(NC(=O)CSc2ncc(S(=O)(=O)c3ccccc3)c(=O)[nH]2)c1", "Potency": "inconclusive: 39.8 µM [inhibitor, partial curve, poor fit]"}, {"smiles": "Cc1nc2ccc(C(=O)OC(C)C(=O)c3c(C)[nH]c4ccccc34)cc2nc1C", "note": "(configuration not stated)", "Potency": "inactive"}]}]}
